## Assay results

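A panel of P. falciparum strains inside erythrocytes is exposed to compounds for three days, then a DNA-binding dye reports the amount of parasite DNA.
Each compound was titrated across a series from about 0.000037 to 29 µM.
The number is the fitted AC50, the concentration giving a half-maximal change in signal; a lower value means higher potency, whether the curve shows a decrease or an increase.
Calls follow the curve class and fit quality: every row here is inconclusive, covering signal-raising curves and weak, poorly fitted, partial or highest-dose-only inhibition curves.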

Values are in µM.
Every entry below has the call inconclusive.
These entries are mostly ones the record files as inconclusive; other results of the assay are not listed here.
Potencies fitted to partial, single-point or poorly fitting curves are rough.

{"compound": "CCCCC(CC)COC(=O)C(C#N)=C(c1ccccc1)c1ccccc1", "stereo": "configuration not stated", "setting": "HB3", "fitted potency (µM)": "10", "remark": "inhibitor, single point"}
{"compound": "CCCCC(CC)COC(=O)C(C#N)=C(c1ccccc1)c1ccccc1", "stereo": "configuration not stated", "setting": "P94_40", "fitted potency (µM)": "10", "remark": "inhibitor, single point"}
{"compound": "CCCCC(CC)COC(=O)C(C#N)=C(c1ccccc1)c1ccccc1", "stereo": "configuration not stated", "setting": "CP265", "fitted potency (µM)": "11.22", "remark": "inhibitor, single point"}
{"compound": "CCCCC(CC)COC(=O)C(C#N)=C(c1ccccc1)c1ccccc1", "stereo": "configuration not stated", "setting": "ATS189", "fitted potency (µM)": "8.912", "remark": "inhibitor, single point"}
{"compound": "CCCCC(CC)COC(=O)C(C#N)=C(c1ccccc1)c1ccccc1", "stereo": "configuration not stated", "setting": "CP266", "fitted potency (µM)": "21.33", "remark": "inhibitor, single point"}
{"compound": "CCCCC(CC)COC(=O)C(C#N)=C(c1ccccc1)c1ccccc1", "stereo": "configuration not stated", "setting": "TAB113", "fitted potency (µM)": "8.912", "remark": "inhibitor, single point"}
{"compound": "CCCCC(CC)COC(=O)C(C#N)=C(c1ccccc1)c1ccccc1", "stereo": "configuration not stated", "setting": "CP217", "fitted potency (µM)": "11.22", "remark": "inhibitor, single point"}
{"compound": "CCCCC(CC)COC(=O)C(C#N)=C(c1ccccc1)c1ccccc1", "stereo": "configuration not stated", "setting": "Dd2", "fitted potency (µM)": "14.13", "remark": "inhibitor, single point"}
{"compound": "CCCCC(CC)COC(=O)C(C#N)=C(c1ccccc1)c1ccccc1", "stereo": "configuration not stated", "setting": "GB4", "fitted potency (µM)": "6.746", "remark": "inhibitor, partial curve"}
{"compound": "CCCCC(CC)COC(=O)C(C#N)=C(c1ccccc1)c1ccccc1", "stereo": "configuration not stated", "setting": "CP247", "fitted potency (µM)": "10", "remark": "inhibitor, single point"}
{"compound": "CCCCC(CC)COC(=O)C(C#N)=C(c1ccccc1)c1ccccc1", "stereo": "configuration not stated", "setting": "CP335", "fitted potency (µM)": "16.94", "remark": "inhibitor, single point"}
{"compound": "CCCCC(CC)COC(=O)C(C#N)=C(c1ccccc1)c1ccccc1", "stereo": "configuration not stated", "setting": "PC15", "fitted potency (µM)": "17.78", "remark": "inhibitor, single point"}
{"compound": "CCCCC(CC)COC(=O)C(C#N)=C(c1ccccc1)c1ccccc1", "stereo": "configuration not stated", "setting": "CP260", "fitted potency (µM)": "11.22", "remark": "inhibitor, single point"}
{"compound": "CCCCC(CC)COC(=O)C(C#N)=C(c1ccccc1)c1ccccc1", "stereo": "configuration not stated", "setting": "CP297", "fitted potency (µM)": "10.69", "remark": "inhibitor, partial curve, poor fit"}
{"compound": "Cc1[nH]cnc1CN1CCc2c(c3ccccc3n2C)C1=O", "setting": "DIV14", "fitted potency (µM)": "15.1", "remark": "inhibitor, partial curve, poor fit"}
{"compound": "CCCCCCCCCCC(CO)CCCCCCCC", "stereo": "configuration not stated", "setting": "CP269", "fitted potency (µM)": "7.569", "remark": "inhibitor, partial curve, poor fit"}
{"compound": "CCCCCCCCCCC(CO)CCCCCCCC", "stereo": "configuration not stated", "setting": "P93_24", "fitted potency (µM)": "11.22", "remark": "inhibitor, partial curve, poor fit"}
{"compound": "CCCCCCCCCCC(CO)CCCCCCCC", "stereo": "configuration not stated", "setting": "7G8", "fitted potency (µM)": "11.22", "remark": "inhibitor, single point"}
{"compound": "CCCCCCCCCCC(CO)CCCCCCCC", "stereo": "configuration not stated", "setting": "GB4", "fitted potency (µM)": "13.46", "remark": "inhibitor, single point"}
{"compound": "CCCCCCCCCCC(CO)CCCCCCCC", "stereo": "configuration not stated", "setting": "DIV14", "fitted potency (µM)": "16.94", "remark": "inhibitor, single point"}
{"compound": "C=CCOC(Cn1ccnc1)c1ccc(Cl)cc1Cl", "stereo": "configuration not stated", "setting": "CP335", "fitted potency (µM)": "15.1", "remark": "inhibitor, single point"}
{"compound": "C=CCOC(Cn1ccnc1)c1ccc(Cl)cc1Cl", "stereo": "configuration not stated", "setting": "JCK", "fitted potency (µM)": "12.59", "remark": "inhibitor, single point"}
{"compound": "C=CCOC(Cn1ccnc1)c1ccc(Cl)cc1Cl", "stereo": "configuration not stated", "setting": "PC49", "fitted potency (µM)": "10", "remark": "inhibitor, single point"}
{"compound": "C=CCOC(Cn1ccnc1)c1ccc(Cl)cc1Cl", "stereo": "configuration not stated", "setting": "FAB9", "fitted potency (µM)": "12.59", "remark": "inhibitor, single point"}
{"compound": "C=CCOC(Cn1ccnc1)c1ccc(Cl)cc1Cl", "stereo": "configuration not stated", "setting": "CP252", "fitted potency (µM)": "12.59", "remark": "inhibitor, single point"}
{"compound": "C=CCOC(Cn1ccnc1)c1ccc(Cl)cc1Cl", "stereo": "configuration not stated", "setting": "CP201", "fitted potency (µM)": "19.01", "remark": "inhibitor, single point"}
{"compound": "C=CCOC(Cn1ccnc1)c1ccc(Cl)cc1Cl", "stereo": "configuration not stated", "setting": "CP265", "fitted potency (µM)": "10", "remark": "inhibitor, single point"}
{"compound": "C=CCOC(Cn1ccnc1)c1ccc(Cl)cc1Cl", "stereo": "configuration not stated", "setting": "CP247", "fitted potency (µM)": "11.22", "remark": "inhibitor, single point"}
{"compound": "C=CCOC(Cn1ccnc1)c1ccc(Cl)cc1Cl", "stereo": "configuration not stated", "setting": "CP329", "fitted potency (µM)": "15.1", "remark": "inhibitor, single point"}
{"compound": "C=CCOC(Cn1ccnc1)c1ccc(Cl)cc1Cl", "stereo": "configuration not stated", "setting": "CP192", "fitted potency (µM)": "15.1", "remark": "inhibitor, single point"}
{"compound": "C=CCOC(Cn1ccnc1)c1ccc(Cl)cc1Cl", "stereo": "configuration not stated", "setting": "CP266", "fitted potency (µM)": "12", "remark": "inhibitor, partial curve"}
{"compound": "C=CCOC(Cn1ccnc1)c1ccc(Cl)cc1Cl", "stereo": "configuration not stated", "setting": "CP211", "fitted potency (µM)": "15.1", "remark": "inhibitor, single point"}
{"compound": "C=CCOC(Cn1ccnc1)c1ccc(Cl)cc1Cl", "stereo": "configuration not stated", "setting": "CP238", "fitted potency (µM)": "11.22", "remark": "inhibitor, single point"}
{"compound": "C=CCOC(Cn1ccnc1)c1ccc(Cl)cc1Cl", "stereo": "configuration not stated", "setting": "CP185", "fitted potency (µM)": "11.22", "remark": "inhibitor, single point"}
{"compound": "C=CCOC(Cn1ccnc1)c1ccc(Cl)cc1Cl", "stereo": "configuration not stated", "setting": "CP191", "fitted potency (µM)": "10", "remark": "inhibitor, single point"}

Some entries from above, unchanged:

Compound	setting	fitted potency (µM)	remark
CCCCC(CC)COC(=O)C(C#N)=C(c1ccccc1)c1ccccc1 (configuration not stated)	CP265	11.22	inhibitor, single point
CCCCC(CC)COC(=O)C(C#N)=C(c1ccccc1)c1ccccc1 (configuration not stated)	TAB113	8.912	inhibitor, single point
CCCCC(CC)COC(=O)C(C#N)=C(c1ccccc1)c1ccccc1 (configuration not stated)	CP297	10.69	inhibitor, partial curve, poor fit

The results are deposited in PubChem (AID504749; NCATS, 2011).